For experiment [1], the target named is tau in NFTs of Tg4510 transgenic mice (UniProt P10636). The experiment is described as follows: IHC on Tg4510 mouse free-floating sections.
In experiment [2] the target is tau-positive glial inclusions in the FTD case (oligodendroglial coiled bodies) and in the PSP case (astrocytic tufts) (human) (UniProt P10636). The experiment is described as follows: IHC on human paraffin sections.
Experiment [3] deals with tau in neurofibrillary tangles (NFTs) in paraffin sections from AD patients (human) (UniProt P10636). The experiment is described as follows: IHC on human paraffin sections.
The target in experiment [4] is tau in NFTs of Tg4510 transgenic mice (UniProt P10636). The experiment is described as follows: IHC with rabbit anti-VHH antibodies four hours after intravenous injection, Tg4510 mice.
For experiment [5] the target is unchanged. Kind of experiment: IHC on Tg4510 brain slices, VHH at 2 µg/ml, anti-His detection.
Experiment [6] shares this target. Kind of experiment: conclusion of Example II (ELISA and IHC).

The chains behind the UniProt entries cited, without tags or fusion partners. Where a name states a change or a piece, a line headed by the entry shows the natural chain unless it says otherwise. A line that says so, or that is headed by a name, gives the form on record, which may keep a tag or linker.
tau in NFTs of Tg4510 transgenic mice (P10636, form named): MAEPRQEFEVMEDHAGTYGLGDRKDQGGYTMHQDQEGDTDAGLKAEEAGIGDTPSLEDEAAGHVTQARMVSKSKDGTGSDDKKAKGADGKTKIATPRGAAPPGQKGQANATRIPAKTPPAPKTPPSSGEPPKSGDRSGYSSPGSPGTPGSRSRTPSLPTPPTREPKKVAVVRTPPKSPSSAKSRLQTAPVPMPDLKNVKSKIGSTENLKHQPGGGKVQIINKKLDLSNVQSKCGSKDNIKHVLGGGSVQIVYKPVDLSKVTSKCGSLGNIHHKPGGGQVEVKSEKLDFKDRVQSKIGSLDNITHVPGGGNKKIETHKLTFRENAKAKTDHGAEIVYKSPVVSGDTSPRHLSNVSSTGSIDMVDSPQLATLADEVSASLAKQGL
tau in neurofibrillary tangles (NFTs) in paraffin sections from AD patients (P10636, form named): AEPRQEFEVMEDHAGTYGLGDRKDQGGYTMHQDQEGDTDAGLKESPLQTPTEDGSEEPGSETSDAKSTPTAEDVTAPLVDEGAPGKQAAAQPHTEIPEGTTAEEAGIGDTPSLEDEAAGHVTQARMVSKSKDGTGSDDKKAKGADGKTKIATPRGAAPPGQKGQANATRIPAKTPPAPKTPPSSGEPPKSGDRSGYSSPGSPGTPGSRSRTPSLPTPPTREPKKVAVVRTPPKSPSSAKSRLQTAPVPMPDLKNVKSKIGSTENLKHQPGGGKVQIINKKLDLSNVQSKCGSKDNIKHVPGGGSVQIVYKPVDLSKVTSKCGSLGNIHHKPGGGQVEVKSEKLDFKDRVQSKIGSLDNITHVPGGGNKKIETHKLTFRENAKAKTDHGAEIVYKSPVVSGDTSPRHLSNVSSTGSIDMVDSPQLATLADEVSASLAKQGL

Data on four molecules can be found in patent US10087245 (Hoffmann-La Roche, dated 2018).

Results are given in words; binding and its absence hold for the method and conditions named. Some binding calls cover weakened binding; strength is not graded here.

B1: VHH Tau-A2 (VHH)
VHH: EVQLQASGGGLVQAGGSLRLSCAASGRSFSGSTMEWYRQAPGKERKFVAAIRTISSRTYYVDSVKGRFTISRDSTKNTVYLQLNSLKVEDTAVYYCAARFSGTIGTTSSVDYWGQGTQVTVSS
notes: Alpaca VHH, expressed in E. coli with a His-tag or a Strep-tag; monomeric by DLS; not shown: 6-Histidine tag (pET23d) or C-terminal Strep-tag (pASK IBA2)
Regarding B1, the binding result in experiment [1], in experiment [2] and in experiment [3] was “binds” in each case.

B2: VHH Tau-A2var-S-(DOTA/Gd)3 (VHH)
VHH: DVQLEASGGGLVQAGGSLRLSCAASGRSFSGSTMEWYRQAPGKERKFVAAIRTGSSRTYYVDSVKGRFTISRDSTKNTVYLQLNSLKGEDTAVYYCAARFSGTIGTTSSVDYWGQGTQVTVGG
modifications: maleimido-(DOTA/Gd)3 on the engineered C-terminal cysteine
Take B2: the binding result in experiment [4] is “binds”.

B3: VHH Tau-A2-SH (VHH)
VHH: AAQLQASGGGLVQAGGSLRLSCAASGRSFSGSTMEWYRQAPGKERKFVAAIRTISSRTYYVDSVKGRFTISRDSTKNTVYLQLNSLKVEDTAVYYCAARFSGTIGTTSSVDYWGQGTQVTVGG
Regarding B3, in experiment [5], the binding entry is “binds”.

B4: VHH Tau-A2var-SH (VHH)
VHH: DVQLEASGGGLVQAGGSLRLSCAASGRSFSGSTMEWYRQAPGKERKFVAAIRTGSSRTYYVDSVKGRFTISRDSTKNTVYLQLNSLKGEDTAVYYCAARFSGTIGTTSSVDYWGQGTQVTVGG
On to B4, for which the binding entry in experiment [6] and in experiment [5] was “binds” throughout.
